The text below walks through data of patent publication US5635477A (The DuPont Merck Pharmaceutical Company, priority 1995, dated 1997).

The nature of one data set: peptide synthesis. To be noted: coupling step, TFA salt.
The nature of data set [1]: general procedure: Boc solid-phase peptide synthesis; oxime resin; HBTU or TBTU with N-methylmorpholine. To be noted: whole synthesis, TFA salt.
The nature of data set [2]: general procedure: Boc solid-phase peptide synthesis; oxime resin (substitution level=0.96 mmol/g); HBTU or TBTU with N-methylmorpholine. The note with it: for isolated yield / crude yield / crude mass: whole synthesis; for isolated yield: overall.
[3] abbreviates: late stage modification step, TFA salt.
The mark [4] stands for this setting: protected cyclic peptide, TFA salt.
Where [5] appears, read: purification step, TFA salt, run 1.
The mark [6] stands for this setting: late stage modification step, acetate salt.
[7] abbreviates: late stage modification step, on protected cyclic peptide, TFA salt.
The mark [8] stands for this setting: late stage modification step, fluoride salt.
Where [9] appears, read: protected cyclic peptide, scale 0.596 mmol, TFA salt.

For some assays here: Some peptides are written in HELM: one residue between dots, names in brackets for other building blocks, links after the first $.

In the case of “Boc-D-Val-NMeArg(Tos)-Gly-Asp(OcHex)-MAMB-Ox”, the step yield in the data set “peptide synthesis” is on record as 86%.
In the case of “PEPTIDE1{G.[NMeArg].G.D.[Mamb]}$PEPTIDE1,PEPTIDE1,1:R1-5:R2$$$V2.0”, the crude mass in data set [1] (scale 0.336 mmol) is 218 mg. Moreover, the step yield in data set [2] (purification step, TFA salt) was found to be 21% recovery. In addition, the isolated yield in data set [2] (TFA salt) came out at 16.3%. Besides, the crude yield in data set [2] (scale 0.336 mmol, TFA salt) stood at 84%.
Turning to “PEPTIDE1{[dV].[NMeArg].G.D.[4I-Mamb]}$PEPTIDE1,PEPTIDE1,1:R1-5:R2$$$V2.0”, the step yield in data set [2] (setting [3]) came to 95.6%; in data set [2] (purification step, TFA salt) it was 39.7% recovery. The isolated yield entry in data set [2] (TFA salt) is listed as “overall yield 16.6%”. Moreover, the crude yield in data set [2] (setting [4]) was 46.8%. In data set [2] (protected cyclic peptide, scale 1.05 mmol, TFA salt), the crude mass was found to be 460 mg.
Take “PEPTIDE1{[dV].[NMeArg].G.D.[4Me-Mamb]}$PEPTIDE1,PEPTIDE1,1:R1-5:R2$$$V2.0”: the step yield in data set [2] (setting [3]) is reported as 42%.
Regarding “PEPTIDE1{[dV].[NMeArg].G.D.[6Cl-Mamb]}$PEPTIDE1,PEPTIDE1,1:R1-5:R2$$$V2.0”, the step yield in data set [2] (setting [3]) was 54%.
Same read-out and setting: to “PEPTIDE1{[dV].[NMeArg].G.D.[6MeO-Mamb]}$PEPTIDE1,PEPTIDE1,1:R1-5:R2$$$V2.0” belongs 63%.
For “PEPTIDE1{[dV].[NMeArg].G.D.[8AmTet2CA]}$PEPTIDE1,PEPTIDE1,1:R1-5:R2$$$V2.0 [89a]”, the step yield in data set [2] (setting [5]) is reported as 12.5% recovery. Besides, the isolated yield result in data set [2] (TFA salt, run 1) is given as “overall yield 6.2%”.
Taken in the same sequence, the figures for “PEPTIDE1{[dV].[NMeArg].G.D.[8AmTet2CA]}$PEPTIDE1,PEPTIDE1,1:R1-5:R2$$$V2.0 [89b]” were 18.6% recovery and “overall yield 9.3%”.
“PEPTIDE1{[dV].[NMeArg].G.D.[Mamb6Me]}$PEPTIDE1,PEPTIDE1,1:R1-5:R2$$$V2.0”: the step yield in data set [2] (setting [3]) was determined as 27%.
Take “PEPTIDE1{[dV].[NMeArg].G.D.[Mamb]}$PEPTIDE1,PEPTIDE1,1:R1-5:R2$$$V2.0”: the crude mass in data set [1] (scale 0.101 mmol) stood at 49 mg. In addition, the step yield is on record as 82% in data set [2] (setting [6]); 70% in data set [2] (setting [7]); 24% recovery in data set [2] (setting [5]); “approximately 40%” in data set [2] (purification step, TFA salt, run 2). Also, the isolated yield in data set [2] (TFA salt) is given as 9.4%. For the same substance, in data set [2] (scale 0.101 mmol, TFA salt), the crude yield came out at 60%.
As to “PEPTIDE1{[dV].[NMeArg].G.[NMeAsp].[Mamb]}$PEPTIDE1,PEPTIDE1,1:R1-5:R2$$$V2.0”, the step yield in data set [2] (setting [8]) was 96.4%; in data set [2] (purification step, TFA salt), 28.2%. In addition, in data set [2] (TFA salt), the isolated yield was 10.9%. In addition, in data set [2] (scale 0.611 mmol, TFA salt), the crude mass amounted to 232 mg. In addition, the crude yield in data set [2] (scale 0.611 mmol, TFA salt) was found to be 46.1%.
Regarding “PEPTIDE1{[dV].[NMeArg].G.[aMeAsp].[Mamb]}$PEPTIDE1,PEPTIDE1,1:R1-5:R2$$$V2.0 [Example 63/63a isomer #1]”, the step yield in data set [2] (setting [5]) was 8.36%. Moreover, the isolated yield in data set [2] (TFA salt, run 1) was 2.5%.
Taken in the same sequence, the figures for “PEPTIDE1{[dV].[NMeArg].G.[aMeAsp].[Mamb]}$PEPTIDE1,PEPTIDE1,1:R1-5:R2$$$V2.0 [Example 63/63a isomer #2]” were 9.16% and 2.7%.
As to “PEPTIDE1{[dV].[NMeArg].G.[dD].[Mamb]}$PEPTIDE1,PEPTIDE1,1:R1-5:R2$$$V2.0”, the step yield in data set [2] (purification step, TFA salt) is 44.4%. The isolated yield in data set [2] (TFA salt) came to 20.7%. In data set [2] (scale 0.611 mmol, TFA salt), the crude mass is reported as 257 mg and the crude yield is reported as 51.9%.
Take “PEPTIDE1{[dV].[NMeArg].[bAla].D.[Mamb]}$PEPTIDE1,PEPTIDE1,1:R1-5:R2$$$V2.0”: the step yield in data set [2] (setting [8]) is on record as 93.2%; in data set [2] (purification step, TFA salt), 43.6%. Further, the isolated yield in data set [2] (TFA salt) is reported as 16.5%. In addition, the crude mass in data set [2] (scale 0.586 mmol, TFA salt) came out at 227 mg. The crude yield in data set [2] (scale 0.586 mmol, TFA salt) was 46.9%.
For “PEPTIDE1{[dY].[NMeArg].G.D.[Mamb]}$PEPTIDE1,PEPTIDE1,1:R1-5:R2$$$V2.0”, the step yield in data set [2] (purification step, TFA salt) stood at 11.3%. Also, the isolated yield in data set [2] (TFA salt) is given as 10.8%. For the same substance, the crude mass in data set [2] (scale 0.313 mmol, TFA salt) is listed as 342 mg.
For “TFA.D-Val-NMeArg(Tos)-Gly-Asp(OcHex)-MAMB-Ox”, in data set [2] (setting [3]), the step yield is reported as 98%.
With “cyclo (.D-Val-NMeArg(Tos)-Gly-Asp(OcHex)-MAMB)”, the cyclisation yield in data set [2] (cyclisation step, TFA salt) is given as 86%.
For the substance cyclo-(Abu-NMeArg-Gly-Asp-Mamb), the step yield in data set [2] (setting [7]) worked out at 90.4%; in data set [2] (purification step, TFA salt) it was 1.92% recovery. Besides, the isolated yield in data set [2] (TFA salt) is listed as 0.574%. Moreover, the crude mass in data set [2] (scale 0.596 mmol, TFA salt) came out at 182 mg. Besides, in data set [2] (scale 0.596 mmol, TFA salt), the crude yield is on record as 38.4%.
Regarding cyclo-(Ala-Arg-Gly-Asp-Mamb), the step yield in data set [2] (setting [6]) was 97.4%. In addition, the step yield in data set [2] (purification step, TFA salt) came out at 15.5%. Besides, the isolated yield in data set [2] (TFA salt) stood at 10.5%. For the same substance, in data set [2] (scale 0.324 mmol, TFA salt), the crude mass is given as 191 mg and the crude yield is 76.4%.
Consider “cyclo-(D-Abu-(DiNMe,guanidinyl-Orn)-Gly-Asp-Mamb)”, for which the step yield result in data set [2] (setting [3]) is “overall yield 53.5%”; in data set [2] (purification step, TFA salt) it was 57.2% recovery.
cyclo-(D-Abu-D-NMeArg-Gly-Asp-Mamb): the step yield in data set [2] (setting [3]) amounted to 98.3%; in data set [2] (purification step, TFA salt) it was 2.3% recovery. Further, the isolated yield entry in data set [2] (TFA salt) is listed as “overall yield 0.99%”. Also, the crude yield in data set [2] (setting [4]) stood at 50.8%. Further, in data set [2] (setting [9]), the crude mass was found to be 241 mg.
Turning to cyclo-(D-Abu-NMeArg-Gly-D-Asp-Mamb), the step yield in data set [2] (purification step, TFA salt) amounted to 40.4% recovery. For the same substance, the isolated yield result in data set [2] (TFA salt) is “overall yield 21.9%”. In addition, the crude yield in data set [2] (setting [4]) amounted to 57.6%. Further, the crude mass in data set [2] (setting [9]) is reported as 273 mg.
As to cyclo-(D-Abu-di-NMeOrn-Gly-Asp-Mamb), the step yield in data set [2] (setting [3]) worked out at 86%; in data set [2] (purification step, TFA salt) it was 49.3% recovery. The isolated yield entry in data set [2] (TFA salt) is reported as “overall yield 14.2%”. In addition, the crude yield in data set [2] (setting [4]) worked out at 39.3%. Moreover, the crude mass in data set [2] (protected cyclic peptide, scale 0.498 mmol, TFA salt) is on record as 150 mg.
cyclo-(D-Met-NMeArg-Gly-Asp-Mamb): in data set [2] (setting [8]), the step yield was 92.3%. Also, the step yield in data set [2] (purification step, TFA salt) is on record as 13.2%. Besides, the isolated yield in data set [2] (TFA salt) stood at 7.4%. For the same substance, in data set [2] (scale 0.179 mmol, TFA salt), the crude mass came to 105 mg and the crude yield was determined as 69.7%.
On to cyclo-(D-Val-D-NMeArg-Gly-Asp-Mamb), for which, in data set [1] (scale 0.596 mmol), the crude mass is 186 mg. In addition, the step yield in data set [2] (purification step, TFA salt) was found to be 14.8%. The isolated yield in data set [2] (TFA salt) worked out at 5.3%. In data set [2] (scale 0.596 mmol, TFA salt), the crude yield worked out at 38.6%.
Regarding “cyclo-(D-Val-NMeArg-Gly-Asp-4-aminomethylbenzoic acid) [87]”, in data set [2] (setting [5]), the step yield stood at 17.1% recovery. Further, in data set [2] (TFA salt, run 1), the isolated yield result is “overall yield 9.3%”.
For the substance “cyclo-(D-Val-NMeArg-Gly-Asp-4-aminomethylbenzoic acid) [88]”, in data set [2] (setting [5]), the step yield amounted to 13.4% recovery. Also, the isolated yield result in data set [2] (TFA salt, run 1) is recorded as “overall yield 7.3%”.
Regarding cyclo-(D-Val-NMeArg-Gly-Asp-NMeMamb), in data set [1] (protected cyclic peptide, scale 0.456 mmol), the crude mass was 406 mg. The step yield amounted to 93.5% in data set [2] (setting [3]) and 34.2% recovery in data set [2] (purification step, TFA salt). In addition, the isolated yield result in data set [2] (TFA salt) is “overall yield 29.9%”.
In the case of “cyclo-(D-Val-NMeArg-Gly-Asp-aminomethylnaphthoic acid)”, the step yield in data set [2] (purification step, TFA salt) is 12.1% recovery. Moreover, in data set [2] (TFA salt), the isolated yield entry is listed as “overall yield 7.8%”. Besides, in data set [2] (setting [4]), the crude yield is 73.1%. Also, the crude mass in data set [2] (protected cyclic peptide, scale 0.737 mmol, TFA salt) came to 463 mg.
“cyclo-(D-Val-NMeArg-Gly-B-MeAsp-Mamb) [Example 64/64a isomer #1]”: in data set [2] (setting [5]), the step yield was found to be 12.7%. Further, the isolated yield in data set [2] (TFA salt, run 1) was found to be 4.8%.
On to “cyclo-(D-Val-NMeArg-Gly-B-MeAsp-Mamb) [Example 64/64a isomer #2]”, for which the step yield in data set [2] (setting [5]) was found to be 13.9%. Besides, the isolated yield in data set [2] (TFA salt, run 1) was 5.3%.
Regarding cyclo-(Pro-NMeArg-Gly-Asp-Mamb), the step yield in data set [2] (setting [6]) turned out to be 79%. Besides, the step yield in data set [2] (purification step, TFA salt) was 5.8%. For the same substance, in data set [2] (TFA salt), the isolated yield came out at 2.1%. Moreover, in data set [2] (scale 0.43 mmol, TFA salt), the crude mass is recorded as 170 mg and the crude yield came out at 48.8%.
